Assay results from the M2OR odorant receptor database.
The other results are listed elsewhere or left out. Calls are pooled over several reports, among them a noisy single-well screen.

What was measured:
Details in all cases: stereoisomer not certain
[1] = system: T1, O14A2
T1 sequence (whole entry): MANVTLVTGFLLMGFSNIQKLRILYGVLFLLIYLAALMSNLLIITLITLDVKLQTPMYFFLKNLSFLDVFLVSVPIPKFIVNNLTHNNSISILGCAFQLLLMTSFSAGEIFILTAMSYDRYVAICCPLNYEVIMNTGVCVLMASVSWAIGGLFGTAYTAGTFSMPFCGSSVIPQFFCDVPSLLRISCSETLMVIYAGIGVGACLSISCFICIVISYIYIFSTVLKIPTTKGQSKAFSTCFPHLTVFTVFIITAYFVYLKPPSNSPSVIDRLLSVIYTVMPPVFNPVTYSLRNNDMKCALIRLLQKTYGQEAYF
In short: (§1)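 Each receptor–molecule pair is labelled responsive or non-responsive (inactive) according to whether the original authors judged the measured signal statistically different from baseline. The data were taken from the main text and supplementary material of published papers and checked for typos and inconsistencies. Assay methods differed by source, with transient luciferase assays in mammalian cell lines being common.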

[2] = system: T2, O14AG
T2 sequence (whole entry): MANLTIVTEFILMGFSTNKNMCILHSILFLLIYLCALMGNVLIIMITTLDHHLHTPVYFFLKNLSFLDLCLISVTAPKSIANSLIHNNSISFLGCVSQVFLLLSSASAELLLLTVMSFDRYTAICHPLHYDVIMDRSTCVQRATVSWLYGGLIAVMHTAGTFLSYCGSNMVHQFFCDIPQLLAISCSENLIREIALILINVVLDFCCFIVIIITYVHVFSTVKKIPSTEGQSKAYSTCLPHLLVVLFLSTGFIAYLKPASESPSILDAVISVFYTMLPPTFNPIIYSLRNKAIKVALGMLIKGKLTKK
In short: as §1

[3] = system: T3, O14CZ
T3 sequence (whole entry): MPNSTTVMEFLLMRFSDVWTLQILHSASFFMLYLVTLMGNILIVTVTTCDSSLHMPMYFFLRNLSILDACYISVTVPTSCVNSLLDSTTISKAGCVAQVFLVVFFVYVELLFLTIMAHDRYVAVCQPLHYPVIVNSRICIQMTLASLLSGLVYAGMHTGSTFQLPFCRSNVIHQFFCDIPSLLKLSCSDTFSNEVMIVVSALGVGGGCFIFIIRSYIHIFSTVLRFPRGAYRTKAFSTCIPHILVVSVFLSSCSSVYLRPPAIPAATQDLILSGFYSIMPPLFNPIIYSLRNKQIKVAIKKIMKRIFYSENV
In short: as §1

[4] = system: T4, O14I1
T4 sequence (whole entry): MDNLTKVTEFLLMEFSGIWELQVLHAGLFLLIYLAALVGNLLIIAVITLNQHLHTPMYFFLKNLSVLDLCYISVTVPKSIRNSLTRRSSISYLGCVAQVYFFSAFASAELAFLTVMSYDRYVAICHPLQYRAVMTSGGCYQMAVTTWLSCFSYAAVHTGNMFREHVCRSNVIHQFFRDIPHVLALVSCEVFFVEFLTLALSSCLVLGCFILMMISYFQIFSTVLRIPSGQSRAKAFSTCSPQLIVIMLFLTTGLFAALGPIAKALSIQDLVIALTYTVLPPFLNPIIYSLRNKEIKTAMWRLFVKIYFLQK
In short: as §1

[5] = system: T5, O14J1
T5 sequence (whole entry): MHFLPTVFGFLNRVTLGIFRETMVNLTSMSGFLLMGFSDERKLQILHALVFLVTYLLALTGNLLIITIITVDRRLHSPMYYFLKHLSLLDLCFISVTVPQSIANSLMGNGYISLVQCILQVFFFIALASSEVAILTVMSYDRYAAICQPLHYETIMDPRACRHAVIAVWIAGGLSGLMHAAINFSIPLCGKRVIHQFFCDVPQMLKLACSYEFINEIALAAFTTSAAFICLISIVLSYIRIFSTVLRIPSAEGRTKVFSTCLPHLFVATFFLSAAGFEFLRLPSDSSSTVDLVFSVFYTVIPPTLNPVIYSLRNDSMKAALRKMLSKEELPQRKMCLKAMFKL
In short: as §1

[6] = system: T6, O14K1
T6 sequence (whole entry): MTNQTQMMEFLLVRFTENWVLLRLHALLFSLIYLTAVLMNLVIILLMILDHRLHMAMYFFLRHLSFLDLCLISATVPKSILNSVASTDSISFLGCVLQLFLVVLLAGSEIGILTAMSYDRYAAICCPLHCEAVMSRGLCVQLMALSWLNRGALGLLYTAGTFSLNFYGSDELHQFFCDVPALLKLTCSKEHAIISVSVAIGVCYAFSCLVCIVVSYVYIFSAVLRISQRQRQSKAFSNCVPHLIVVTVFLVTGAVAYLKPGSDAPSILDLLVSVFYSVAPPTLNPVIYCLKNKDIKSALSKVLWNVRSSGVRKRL
In short: as §1

[7] = system: T7, O14L1
T7 sequence (whole entry): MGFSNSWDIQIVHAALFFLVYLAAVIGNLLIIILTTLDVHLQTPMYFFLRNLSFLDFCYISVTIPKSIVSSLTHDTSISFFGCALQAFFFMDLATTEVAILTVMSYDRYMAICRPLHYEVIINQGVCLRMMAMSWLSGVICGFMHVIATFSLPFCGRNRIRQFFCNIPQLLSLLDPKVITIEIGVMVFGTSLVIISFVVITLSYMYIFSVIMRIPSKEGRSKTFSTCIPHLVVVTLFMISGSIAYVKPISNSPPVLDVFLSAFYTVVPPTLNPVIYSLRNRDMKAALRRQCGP
In short: as §1

[8] = system: T8, O2A14
T8 sequence (whole entry): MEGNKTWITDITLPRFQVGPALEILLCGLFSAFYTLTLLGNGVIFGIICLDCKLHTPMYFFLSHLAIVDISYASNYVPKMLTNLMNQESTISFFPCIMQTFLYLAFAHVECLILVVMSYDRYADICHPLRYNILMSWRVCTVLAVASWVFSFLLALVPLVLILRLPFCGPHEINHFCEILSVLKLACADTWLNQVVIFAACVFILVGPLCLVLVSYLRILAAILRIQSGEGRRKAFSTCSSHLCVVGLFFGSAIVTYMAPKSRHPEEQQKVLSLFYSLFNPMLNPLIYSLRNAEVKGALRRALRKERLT
In short: as §1

[9] = system: T9, O2AE1
T9 sequence (whole entry): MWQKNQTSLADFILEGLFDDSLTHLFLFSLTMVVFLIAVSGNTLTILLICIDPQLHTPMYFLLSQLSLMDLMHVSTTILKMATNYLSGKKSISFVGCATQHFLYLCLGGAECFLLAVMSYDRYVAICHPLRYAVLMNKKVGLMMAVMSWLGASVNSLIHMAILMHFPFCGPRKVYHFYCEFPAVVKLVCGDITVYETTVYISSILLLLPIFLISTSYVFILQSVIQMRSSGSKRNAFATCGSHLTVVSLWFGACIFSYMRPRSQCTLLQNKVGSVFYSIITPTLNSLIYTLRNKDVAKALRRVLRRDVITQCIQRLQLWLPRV
In short: as §1

[10] = system: T10, O2AG2
T10 sequence (whole entry): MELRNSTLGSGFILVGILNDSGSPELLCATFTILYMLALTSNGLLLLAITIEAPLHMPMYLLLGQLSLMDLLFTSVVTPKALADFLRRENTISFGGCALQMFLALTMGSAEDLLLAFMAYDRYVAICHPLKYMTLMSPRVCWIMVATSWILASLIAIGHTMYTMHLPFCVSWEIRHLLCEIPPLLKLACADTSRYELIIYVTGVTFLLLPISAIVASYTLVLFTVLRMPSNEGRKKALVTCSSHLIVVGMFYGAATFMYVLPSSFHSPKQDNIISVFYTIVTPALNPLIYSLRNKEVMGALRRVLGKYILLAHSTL
In short: as §1

[11] = system: T11, O2AJ1
T11 sequence (whole entry): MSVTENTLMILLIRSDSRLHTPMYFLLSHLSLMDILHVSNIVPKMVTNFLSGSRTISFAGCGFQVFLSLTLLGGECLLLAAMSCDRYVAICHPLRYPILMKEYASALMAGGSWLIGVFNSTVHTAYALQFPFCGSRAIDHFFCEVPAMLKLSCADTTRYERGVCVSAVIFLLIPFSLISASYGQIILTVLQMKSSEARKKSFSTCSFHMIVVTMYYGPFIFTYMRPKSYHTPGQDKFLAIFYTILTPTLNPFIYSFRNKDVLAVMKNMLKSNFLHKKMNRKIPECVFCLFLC
In short: as §1

[12] = system: T12, O2AK2
T12 sequence (whole entry): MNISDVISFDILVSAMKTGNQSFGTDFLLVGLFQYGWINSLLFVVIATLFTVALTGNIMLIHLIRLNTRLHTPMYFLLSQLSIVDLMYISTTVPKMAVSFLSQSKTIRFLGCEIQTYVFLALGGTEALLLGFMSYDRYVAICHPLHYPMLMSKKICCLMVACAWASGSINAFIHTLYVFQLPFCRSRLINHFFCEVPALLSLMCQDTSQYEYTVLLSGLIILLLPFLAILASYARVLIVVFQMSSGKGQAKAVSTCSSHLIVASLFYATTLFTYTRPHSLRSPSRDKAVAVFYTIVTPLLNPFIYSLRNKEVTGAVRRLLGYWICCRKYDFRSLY
In short: as §1
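Further: active if original authors judged signal statistically different from baseline.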

Row | Compound | odorant receptor agonist call [1] | odorant receptor agonist call [2] | odorant receptor agonist call [3] | odorant receptor agonist call [4] | odorant receptor agonist call [5] | odorant receptor agonist call [6] | odorant receptor agonist call [7] | odorant receptor agonist call [8] | odorant receptor agonist call [9] | odorant receptor agonist call [10] | odorant receptor agonist call [11] | odorant receptor agonist call [12]
1 | CCCCCCOC(=O)CCC | inactive | inactive | inactive | inactive | inactive | inactive | inactive | inactive | inactive | inactive | inactive | inactive
2 | C=CC(C)(O)CCC=C(C)C (centres undefined) | inactive | inactive | inactive | inactive | inactive | inactive | inactive | inactive | inactive | inactive | inactive | inactive
3 | CCCCCCCCOC(C)=O | inactive | inactive | inactive | inactive | inactive | inactive | inactive | inactive | inactive | inactive | inactive | inactive
4 | CC1COCc2cc3c(cc21)C(C)(C)C(C)C3(C)C (centres undefined) | inactive | inactive | active | active | active | active | active | active | active | active | active | active
5 | CC(=O)OC1CC2CCC1(C)C2(C)C (centres undefined) | inactive | inactive | inactive | inactive | inactive | inactive | inactive | inactive | inactive | inactive | inactive | inactive
6 | C=CCc1ccc(OC(C)=O)c(OC)c1 | inactive | inactive | inactive | inactive | inactive | inactive | inactive | inactive | inactive | inactive | inactive | inactive
7 | CC(C)CCC(=O)O | inactive | inactive | inactive | inactive | inactive | inactive | inactive | inactive | inactive | inactive | inactive | inactive
8 | CCCCCCCOC(C)=O | inactive | inactive | inactive | inactive | inactive | inactive | inactive | inactive | inactive | inactive | inactive | inactive
9 | CCCCCCCCCC=O | inactive | inactive | inactive | inactive | inactive | inactive | inactive | inactive | inactive | inactive | inactive | inactive
10 | CCCCCCCCCCC=O | inactive | inactive | inactive | inactive | inactive | inactive | inactive | inactive | inactive | inactive | inactive | inactive
11 | CC(C)(C)c1ccc(CCC=O)cc1 | inactive | inactive | inactive | inactive | inactive | inactive | inactive | inactive | inactive | inactive | inactive | inactive
12 | O=C1CCCCCCCCCCCCCCO1 | inactive | inactive | inactive | inactive | inactive | inactive | inactive | inactive | inactive | inactive | inactive | inactive

A second format for part of the listing above:
Row	Compound	odorant receptor agonist call [1]	odorant receptor agonist call [2]	odorant receptor agonist call [3]	odorant receptor agonist call [4]	odorant receptor agonist call [5]	odorant receptor agonist call [6]	odorant receptor agonist call [7]	odorant receptor agonist call [8]	odorant receptor agonist call [9]	odorant receptor agonist call [10]	odorant receptor agonist call [11]	odorant receptor agonist call [12]
3	CCCCCCCCOC(C)=O	inactive	inactive	inactive	inactive	inactive	inactive	inactive	inactive	inactive	inactive	inactive	inactive
10	CCCCCCCCCCC=O	inactive	inactive	inactive	inactive	inactive	inactive	inactive	inactive	inactive	inactive	inactive	inactive
